Taken from: PubChem BioAssay AID686938 (Drosophila RNAi Screening Center, 2013)

Assay: 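Looking for CRAC channel components and the factors controlling them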 (primary screen)
Cells: Drosophila S2R+ cells
Reagent: long dsRNA against Drosophila genes, about 0.25 µg dsRNA per well, roughly 10,000 cells
Timing: 5 days of knock-down before the calcium assay
Conditions: thapsigargin (SERCA pump blocker) to empty calcium stores; entry signal taken 4 min after adding it
Measurement: 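Per-well fluo-4 fluorescence in two replicates, unnormalised, measured in resting cells and 4 min after store depletion by the SERCA blocker thapsigargin; ratio of the two present in few wells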
Reading the numbers: calcium entry signal: higher = stronger calcium signal after store depletion; resting calcium signal: higher = higher resting calcium signal
Units: calcium entry signal in fluorescence units; resting calcium signal in fluorescence units
Rule for the call: 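Called when the plate z-score of the entry-to-rest ratio, mean of duplicates, falls below −3; wells with low overall dye signal (Fmax z below −2) or more than five off-targets excluded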
Meaning of the calls: active = strongly reduced calcium entry; inactive = no strong reduction
The screen tested about 23,000 reagents; this is a random part of those that have a named target and a result. In the full data, 75 (0.33%) are marked active. 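Raw plate signals without normalisation; calls rest on plate z-scores that were not deposited; ratio present for only 364 wells.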 Reagents against one gene are numbered here. Names joined by + are all predicted targets of the reagent. Not stated in the record: the dose of the treatment.

With knock-down of CG7084, the screen gave calcium entry signal, replicate 1 = 3.02e7; calcium entry signal, replicate 2 = 3.23e7; resting calcium signal, replicate 1 = 1.43e7; resting calcium signal, replicate 2 = 1.52e7; inactive.
For CG3529, the values are calcium entry signal, replicate 1 = 5.70e7; calcium entry signal, replicate 2 = 4.50e7; resting calcium signal, replicate 1 = 3.55e7; resting calcium signal, replicate 2 = 1.79e7; inactive.
With knock-down of CG11686 the results were calcium entry signal, replicate 1 = 2.44e7; calcium entry signal, replicate 2 = 4.74e7; resting calcium signal, replicate 1 = 1.28e7; resting calcium signal, replicate 2 = 5.88e7; inactive.
Against CG12645, the values are calcium entry signal, replicate 1 = 3.11e7; calcium entry signal, replicate 2 = 3.67e7; resting calcium signal, replicate 1 = 1.57e7; resting calcium signal, replicate 2 = 1.84e7; inactive.
Silencing of CG34345 resulted in: calcium entry signal, replicate 1 = 2.19e7; calcium entry signal, replicate 2 = 3.15e7; resting calcium signal, replicate 1 = 1.23e7; resting calcium signal, replicate 2 = 1.27e7; inactive.
CG9394 showed calcium entry signal, replicate 1 = 4.73e7; calcium entry signal, replicate 2 = 5.13e7; resting calcium signal, replicate 1 = 2.17e7; resting calcium signal, replicate 2 = 2.16e7; inactive.
CG9485 gave calcium entry signal, replicate 1 = 4.08e7; resting calcium signal, replicate 1 = 1.94e7; inactive.
snk scored calcium entry signal, replicate 1 = 2.25e7; calcium entry signal, replicate 2 = 3.39e7; resting calcium signal, replicate 1 = 1.16e7; resting calcium signal, replicate 2 = 4.78e7; inactive.
Against SMC2 the deposit lists calcium entry signal, replicate 1 = 4.38e7; calcium entry signal, replicate 2 = 3.65e7; resting calcium signal, replicate 1 = 2.28e7; resting calcium signal, replicate 2 = 2.10e7; inactive.
With knock-down of Traf6, the record shows calcium entry signal, replicate 1 = 3.18e7; calcium entry signal, replicate 2 = 4.16e7; resting calcium signal, replicate 1 = 1.65e7; resting calcium signal, replicate 2 = 1.90e7; inactive.
CG13871 showed calcium entry signal, replicate 1 = 5.41e7; calcium entry signal, replicate 2 = 5.86e7; resting calcium signal, replicate 1 = 2.22e7; resting calcium signal, replicate 2 = 2.58e7; inactive.
After knock-down of CG3502 + CG9863, the record shows calcium entry signal, replicate 1 = 3.61e7; calcium entry signal, replicate 2 = 3.41e7; resting calcium signal, replicate 1 = 1.96e7; resting calcium signal, replicate 2 = 1.61e7; inactive.
Against CG16952, the values are calcium entry signal, replicate 1 = 2.96e7; calcium entry signal, replicate 2 = 3.23e7; resting calcium signal, replicate 1 = 1.60e7; resting calcium signal, replicate 2 = 1.64e7; inactive.
After knock-down of CG33769 the results were calcium entry signal, replicate 1 = 2.88e7; calcium entry signal, replicate 2 = 5.06e7; resting calcium signal, replicate 1 = 1.33e7; resting calcium signal, replicate 2 = 2.17e7; inactive.
Against NC2alpha, the values are calcium entry signal, replicate 1 = 2.64e7; resting calcium signal, replicate 1 = 1.50e7; inactive.
Silencing of Nup93-2 resulted in: calcium entry signal, replicate 1 = 3.44e7; calcium entry signal, replicate 2 = 4.63e7; resting calcium signal, replicate 1 = 1.77e7; resting calcium signal, replicate 2 = 2.37e7; inactive.
Knock-down of RhoGEF4 resulted in: calcium entry signal, replicate 1 = 5.00e7; calcium entry signal, replicate 2 = 3.81e7; resting calcium signal, replicate 1 = 3.39e7; resting calcium signal, replicate 2 = 1.62e7; inactive.
Silencing of mRpL55 gave: calcium entry signal, replicate 1 = 2.61e7; calcium entry signal, replicate 2 = 3.83e7; resting calcium signal, replicate 1 = 3.92e7; resting calcium signal, replicate 2 = 1.35e7; inactive.
prtp #1 gave calcium entry signal, replicate 1 = 2.89e7; calcium entry signal, replicate 2 = 5.10e7; resting calcium signal, replicate 1 = 1.37e7; resting calcium signal, replicate 2 = 2.43e7; inactive.
Against prtp #2, the values are calcium entry signal, replicate 1 = 4.33e7; calcium entry signal, replicate 2 = 4.16e7; resting calcium signal, replicate 1 = 2.69e7; resting calcium signal, replicate 2 = 1.94e7; inactive.
Knock-down of CG34148 + P5CDh2 gave: calcium entry signal, replicate 1 = 4.59e7; calcium entry signal, replicate 2 = 2.67e7; resting calcium signal, replicate 1 = 2.16e7; resting calcium signal, replicate 2 = 1.30e7; inactive.
For jub, the entry reads calcium entry signal, replicate 1 = 2.68e7; calcium entry signal, replicate 2 = 3.08e7; resting calcium signal, replicate 1 = 1.29e7; resting calcium signal, replicate 2 = 1.61e7; inactive.
CG42493 gave calcium entry signal, replicate 1 = 3.56e7; calcium entry signal, replicate 2 = 3.96e7; resting calcium signal, replicate 1 = 2.22e7; resting calcium signal, replicate 2 = 1.64e7; inactive.
With knock-down of Cyp313a1, the screen gave calcium entry signal, replicate 1 = 2.43e7; calcium entry signal, replicate 2 = 4.21e7; resting calcium signal, replicate 1 = 1.21e7; resting calcium signal, replicate 2 = 6.07e7; inactive.
Depletion of Obp56g resulted in: calcium entry signal, replicate 1 = 5.99e7; calcium entry signal, replicate 2 = 7.59e7; resting calcium signal, replicate 1 = 2.67e7; resting calcium signal, replicate 2 = 3.56e7; inactive.
For Atx-1 the deposit lists calcium entry signal, replicate 1 = 2.84e7; calcium entry signal, replicate 2 = 4.04e7; resting calcium signal, replicate 1 = 1.52e7; resting calcium signal, replicate 2 = 1.78e7; inactive.
Depletion of Jhbp2 gave: calcium entry signal, replicate 1 = 3.16e7; calcium entry signal, replicate 2 = 5.05e7; resting calcium signal, replicate 1 = 1.55e7; resting calcium signal, replicate 2 = 2.18e7; inactive.

3 consecutive records already listed:
prtp #2: calcium entry signal, replicate 1 = 4.33e7; calcium entry signal, replicate 2 = 4.16e7; resting calcium signal, replicate 1 = 2.69e7; resting calcium signal, replicate 2 = 1.94e7; outcome = inactive
CG34148 + P5CDh2: calcium entry signal, replicate 1 = 4.59e7; calcium entry signal, replicate 2 = 2.67e7; resting calcium signal, replicate 1 = 2.16e7; resting calcium signal, replicate 2 = 1.30e7; outcome = inactive
jub: calcium entry signal, replicate 1 = 2.68e7; calcium entry signal, replicate 2 = 3.08e7; resting calcium signal, replicate 1 = 1.29e7; resting calcium signal, replicate 2 = 1.61e7; outcome = inactive
